No constants are given. Whether binding was seen depends on the method and setting. Some results given as binding are weak or reduced against the parent protein; the word gives no strength.
Legend:
[1] = target: ISG15-vinyl sulfone (human) (UniProt P05161); assay: covalent labelling with active-site directed probes (adduct seen as mobility shift in SDS-PAGE, fluorography); IVT products (RNase B treated) incubated with saturating amounts of the individual probes (0.2–0.4 µg/10 µl IVT lysate); in Figure 4 also with increasing concentrations of purified human 26S proteasomes; only the target purified
[2] = target: SUMO1-vinylmethyl ester (human) (UniProt P63165); assay: as above

Sequences of proteins named here, by UniProt entry; tags and fusion partners are left off. Residues count along the entry.
UniProt P05161, residues 1-157: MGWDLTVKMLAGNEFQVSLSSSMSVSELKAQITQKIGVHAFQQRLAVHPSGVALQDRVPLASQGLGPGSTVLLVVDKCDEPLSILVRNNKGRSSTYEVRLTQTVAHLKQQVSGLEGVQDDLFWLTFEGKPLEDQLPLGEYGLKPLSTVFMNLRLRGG
UniProt P63165, residues 1-97: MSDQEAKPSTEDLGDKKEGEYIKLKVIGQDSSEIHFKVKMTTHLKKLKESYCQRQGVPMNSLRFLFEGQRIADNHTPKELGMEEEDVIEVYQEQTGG

B1: SUMO protease SENP2 (enzyme, UniProt Q9HC62 1-589)
chain: MYRWLVRILGTIFRFCDRSVPPARALLKRRRSDSTLFSTVDTDEIPAKRPRLDCFIHQVKNSLYNAASLFGFPFQLTTKPMVTSACNGTRNVAPSGEVFSNSSSCELTGSGSWNNMLKLGNKSPNGISDYPKIRVTVTRDQPRRVLPSFGFTLNSEGCNRRPGGRRHSKGNPESSLMWKPQEQAVTEMISEESGKGLRRPHCTVEEGVQKEEREKYRKLLERLKESGHGNSVCPVTSNYHSSQRSQMDTLKTKGWGEEQNHGVKTTQFVPKQYRLVETRGPLCSLRSEKRCSKGKITDTETMVGIRFENESRRGYQLEPDLSEEVSARLRLGSGSNGLLRRKVSIIETKEKNCSGKERDRRTDDLLELTEDMEKEISNALGHGPQDEILSSAFKLRITRGDIQTLKNYHWLNDEVINFYMNLLVERNKKQGYPALHVFSTFFYPKLKSGGYQAVKRWTKGVNLFEQEIILVPIHRKVHWSLVVIDLRKKCLKYLDSMGQKGHRICEILLQYLQDESKTKRNSDLNLLEWTHHSMKPHEIPQQLNGSDCGMFTCKYADYISRDKPITFTQHQMPLFRKKMVWEILHQQLL
For B1, the binding [1] was “no binding” and the binding [2] was “binds”.
